# In the supplement of paper PMC6411743:
# ± gives the standard deviation of the averaged measurements. Only a part is listed here, and it is no random draw.
# Tests used:
# Test in all cases: NP40-soluble protein abundance relative to vehicle (solubility fold change) (ratio); higher = more soluble protein in presence of ATP
# CALR = biological target: T1, CALR (UniProt P27797)
# T1 sequence (whole entry): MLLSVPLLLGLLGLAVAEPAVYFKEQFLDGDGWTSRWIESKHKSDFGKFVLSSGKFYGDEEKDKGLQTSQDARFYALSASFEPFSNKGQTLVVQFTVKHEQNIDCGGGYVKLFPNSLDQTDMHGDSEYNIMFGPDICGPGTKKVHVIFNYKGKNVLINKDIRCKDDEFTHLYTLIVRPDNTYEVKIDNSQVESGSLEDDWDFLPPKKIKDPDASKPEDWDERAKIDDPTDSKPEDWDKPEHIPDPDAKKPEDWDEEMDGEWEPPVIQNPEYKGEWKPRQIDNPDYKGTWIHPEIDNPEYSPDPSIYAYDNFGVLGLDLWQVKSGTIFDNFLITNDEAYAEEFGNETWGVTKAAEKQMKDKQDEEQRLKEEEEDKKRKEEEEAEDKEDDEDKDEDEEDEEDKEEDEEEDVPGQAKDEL
# Procedure, shortened: (§1)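 Data come from three independent experiments in which Dounce-homogenised Jurkat crude lysate was treated at eight concentrations from 0.1 to 10 mM. Treatment ran 10 min at room temperature and then 3 min at 37 °C, after which 0.8% NP40 and benzonase were added for 60 min at 4 °C before ultracentrifugation. The supernatant underwent TMT labelling and LC-MS/MS, and vsn-normalised intensities were expressed as fold change against the detergent-processed vehicle in each replicate.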
# GALNS = biological target: T2, GALNS (UniProt P34059)
# T2 sequence (whole entry): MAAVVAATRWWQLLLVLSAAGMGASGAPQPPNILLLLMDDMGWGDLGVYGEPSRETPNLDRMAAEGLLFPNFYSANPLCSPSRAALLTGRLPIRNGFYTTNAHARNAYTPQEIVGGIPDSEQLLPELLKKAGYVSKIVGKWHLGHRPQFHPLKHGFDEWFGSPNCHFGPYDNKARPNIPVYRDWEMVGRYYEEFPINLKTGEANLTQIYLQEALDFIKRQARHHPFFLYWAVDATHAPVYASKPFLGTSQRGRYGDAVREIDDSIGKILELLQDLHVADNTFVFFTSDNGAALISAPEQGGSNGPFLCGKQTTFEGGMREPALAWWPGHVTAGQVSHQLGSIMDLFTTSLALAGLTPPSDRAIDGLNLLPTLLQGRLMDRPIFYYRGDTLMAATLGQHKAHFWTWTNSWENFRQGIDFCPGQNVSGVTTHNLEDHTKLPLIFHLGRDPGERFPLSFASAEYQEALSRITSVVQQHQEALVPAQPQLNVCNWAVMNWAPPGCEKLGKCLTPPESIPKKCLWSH
# Procedure, shortened: as §1
# GART = biological target: T3, GART (UniProt P22102)
# T3 sequence (whole entry): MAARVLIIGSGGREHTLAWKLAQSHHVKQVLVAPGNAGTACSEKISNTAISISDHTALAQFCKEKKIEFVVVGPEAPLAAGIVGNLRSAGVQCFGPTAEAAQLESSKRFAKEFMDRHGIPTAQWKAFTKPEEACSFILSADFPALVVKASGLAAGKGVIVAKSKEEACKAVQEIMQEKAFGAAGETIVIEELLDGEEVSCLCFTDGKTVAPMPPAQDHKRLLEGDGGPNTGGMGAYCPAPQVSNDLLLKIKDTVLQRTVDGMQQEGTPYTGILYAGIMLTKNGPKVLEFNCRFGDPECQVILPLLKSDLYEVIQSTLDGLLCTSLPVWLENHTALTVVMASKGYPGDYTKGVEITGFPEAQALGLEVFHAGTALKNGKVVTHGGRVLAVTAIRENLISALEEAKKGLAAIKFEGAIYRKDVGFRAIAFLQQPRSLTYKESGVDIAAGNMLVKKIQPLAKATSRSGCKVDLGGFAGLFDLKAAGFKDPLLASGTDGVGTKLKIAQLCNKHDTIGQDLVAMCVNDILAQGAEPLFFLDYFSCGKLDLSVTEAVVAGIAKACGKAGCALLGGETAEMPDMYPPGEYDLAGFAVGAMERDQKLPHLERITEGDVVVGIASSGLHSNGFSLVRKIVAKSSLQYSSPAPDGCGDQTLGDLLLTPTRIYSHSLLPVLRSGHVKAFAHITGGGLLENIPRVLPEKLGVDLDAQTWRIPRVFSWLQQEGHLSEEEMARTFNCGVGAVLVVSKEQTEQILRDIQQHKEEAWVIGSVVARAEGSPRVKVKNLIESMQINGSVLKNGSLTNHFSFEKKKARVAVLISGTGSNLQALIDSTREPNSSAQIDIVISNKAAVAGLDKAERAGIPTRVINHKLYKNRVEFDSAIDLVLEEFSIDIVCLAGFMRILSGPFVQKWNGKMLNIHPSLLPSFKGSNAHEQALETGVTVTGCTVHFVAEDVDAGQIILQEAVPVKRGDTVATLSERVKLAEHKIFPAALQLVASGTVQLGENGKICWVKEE
# Procedure, shortened: as §1
# GSTM3 = biological target: T4, GSTM3 (UniProt P21266)
# T4 sequence (whole entry): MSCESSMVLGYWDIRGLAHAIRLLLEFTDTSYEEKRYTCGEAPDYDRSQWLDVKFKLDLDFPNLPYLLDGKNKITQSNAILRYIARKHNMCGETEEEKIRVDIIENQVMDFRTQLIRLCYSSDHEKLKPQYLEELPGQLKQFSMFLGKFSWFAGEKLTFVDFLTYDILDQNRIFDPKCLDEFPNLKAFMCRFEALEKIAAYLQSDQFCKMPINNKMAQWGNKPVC
# Procedure, shortened: as §1
# JUND = biological target: T5, JUND (UniProt P17535)
# T5 sequence (whole entry): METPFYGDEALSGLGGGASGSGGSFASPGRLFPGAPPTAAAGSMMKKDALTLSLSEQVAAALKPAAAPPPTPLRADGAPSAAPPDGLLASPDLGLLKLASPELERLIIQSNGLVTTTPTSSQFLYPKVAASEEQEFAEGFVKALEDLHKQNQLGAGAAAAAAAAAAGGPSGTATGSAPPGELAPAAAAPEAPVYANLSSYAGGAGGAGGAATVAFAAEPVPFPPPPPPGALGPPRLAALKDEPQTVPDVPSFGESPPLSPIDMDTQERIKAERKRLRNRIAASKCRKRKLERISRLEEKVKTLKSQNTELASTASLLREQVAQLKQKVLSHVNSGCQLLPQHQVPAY
# Procedure, shortened: as §1
# PHB = biological target: T6, PHB (UniProt P35232)
# T6 sequence (whole entry): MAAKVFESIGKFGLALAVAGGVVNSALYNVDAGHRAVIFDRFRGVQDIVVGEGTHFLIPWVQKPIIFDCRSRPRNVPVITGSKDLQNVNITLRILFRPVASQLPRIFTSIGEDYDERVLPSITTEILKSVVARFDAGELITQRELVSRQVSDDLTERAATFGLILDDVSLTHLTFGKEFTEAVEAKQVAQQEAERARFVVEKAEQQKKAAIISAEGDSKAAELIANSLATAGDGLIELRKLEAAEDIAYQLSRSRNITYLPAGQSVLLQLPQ
# Procedure, shortened: as §1
structure (smiles),measurement,setting,value
Nc1ncnc2c1ncn2[C@@H]1O[C@H](COP(=O)(O)OP(=O)(O)OP(=O)(O)O)[C@@H](O)[C@H]1O [adenosine triphosphate],NP40-soluble protein abundance,CALR; concentration: 1mM,0.933 ± 0.075
same,NP40-soluble protein abundance,CALR; concentration: 2mM,0.911 ± 0.042
same,NP40-soluble protein abundance,CALR; concentration: 4mM,0.871 ± 0.026
same,NP40-soluble protein abundance,CALR; concentration: 6mM,0.942 ± 0.037
same,NP40-soluble protein abundance,CALR; concentration: 8mM,0.882 ± 0.05
same,NP40-soluble protein abundance,CALR; concentration: 10mM,0.903 ± 0.054
same,NP40-soluble protein abundance,GALNS; concentration: 1mM,1 ± 0.06
same,NP40-soluble protein abundance,GALNS; concentration: 2mM,0.963 ± 0.013
same,NP40-soluble protein abundance,GALNS; concentration: 4mM,0.929 ± 0.038
same,NP40-soluble protein abundance,GALNS; concentration: 6mM,0.929 ± 0.014
same,NP40-soluble protein abundance,GALNS; concentration: 8mM,0.885 ± 0.05
same,NP40-soluble protein abundance,GALNS; concentration: 10mM,0.958 ± 0.04
same,NP40-soluble protein abundance,GART; concentration: 1mM,0.988 ± 0.043
same,NP40-soluble protein abundance,GART; concentration: 2mM,0.97 ± 0.035
same,NP40-soluble protein abundance,GART; concentration: 4mM,0.943 ± 0.039
same,NP40-soluble protein abundance,GART; concentration: 6mM,0.924 ± 0.069
same,NP40-soluble protein abundance,GART; concentration: 8mM,0.942 ± 0.034
same,NP40-soluble protein abundance,GART; concentration: 10mM,0.953 ± 0.048
same,NP40-soluble protein abundance,GSTM3; concentration: 1mM,0.969 ± 0.12
same,NP40-soluble protein abundance,GSTM3; concentration: 2mM,0.968 ± 0.12
same,NP40-soluble protein abundance,GSTM3; concentration: 4mM,0.97 ± 0.1
same,NP40-soluble protein abundance,GSTM3; concentration: 6mM,0.879 ± 0.15
same,NP40-soluble protein abundance,GSTM3; concentration: 8mM,0.953 ± 0.081
same,NP40-soluble protein abundance,GSTM3; concentration: 10mM,0.941 ± 0.11
same,NP40-soluble protein abundance,JUND; concentration: 1mM,0.951 ± 0.18
same,NP40-soluble protein abundance,JUND; concentration: 2mM,0.888 ± 0.12
same,NP40-soluble protein abundance,JUND; concentration: 4mM,0.868 ± 0.07
same,NP40-soluble protein abundance,JUND; concentration: 6mM,0.944 ± 0.1
same,NP40-soluble protein abundance,JUND; concentration: 8mM,0.817 ± 0.081
same,NP40-soluble protein abundance,JUND; concentration: 10mM,0.761 ± 0.13
same,NP40-soluble protein abundance,PHB; concentration: 1mM,0.94 ± 0.035
same,NP40-soluble protein abundance,PHB; concentration: 2mM,0.91 ± 0.011
same,NP40-soluble protein abundance,PHB; concentration: 4mM,0.878 ± 0.034
same,NP40-soluble protein abundance,PHB; concentration: 6mM,0.923 ± 0.043
same,NP40-soluble protein abundance,PHB; concentration: 8mM,0.913 ± 0.029
same,NP40-soluble protein abundance,PHB; concentration: 10mM,0.904 ± 0.028

# Looked up one by one from the list above (2):
structure (smiles),measurement,setting,value
Nc1ncnc2c1ncn2[C@@H]1O[C@H](COP(=O)(O)OP(=O)(O)OP(=O)(O)O)[C@@H](O)[C@H]1O [adenosine triphosphate],NP40-soluble protein abundance,PHB; concentration: 8mM,0.913 ± 0.029
same,NP40-soluble protein abundance,JUND; concentration: 8mM,0.817 ± 0.081
